Measured values published in article doi:10.1101/2023.11.07.565989.
No constants are given. Whether binding was seen depends on the method and setting. Some entries that bind do so weakly or less than the wild type.

The chains behind the UniProt entries cited, without tags or fusion partners. Residues count along the entry.
UniProt Q96CB9, residues 26-384: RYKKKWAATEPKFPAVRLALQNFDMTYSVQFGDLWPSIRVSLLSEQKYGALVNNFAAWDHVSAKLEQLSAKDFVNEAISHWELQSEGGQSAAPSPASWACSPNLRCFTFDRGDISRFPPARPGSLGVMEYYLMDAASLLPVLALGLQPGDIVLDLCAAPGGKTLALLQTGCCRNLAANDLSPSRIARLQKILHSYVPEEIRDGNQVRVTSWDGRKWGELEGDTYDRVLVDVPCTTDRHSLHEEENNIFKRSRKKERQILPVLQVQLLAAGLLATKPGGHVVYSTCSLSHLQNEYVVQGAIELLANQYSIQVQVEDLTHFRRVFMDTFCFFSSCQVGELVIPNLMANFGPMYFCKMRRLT

Target: T1, RNA-binding protein MTERF4 (human (endogenous in HEK293-6E)) (UniProt Q7Z6M4)
T1 sequence: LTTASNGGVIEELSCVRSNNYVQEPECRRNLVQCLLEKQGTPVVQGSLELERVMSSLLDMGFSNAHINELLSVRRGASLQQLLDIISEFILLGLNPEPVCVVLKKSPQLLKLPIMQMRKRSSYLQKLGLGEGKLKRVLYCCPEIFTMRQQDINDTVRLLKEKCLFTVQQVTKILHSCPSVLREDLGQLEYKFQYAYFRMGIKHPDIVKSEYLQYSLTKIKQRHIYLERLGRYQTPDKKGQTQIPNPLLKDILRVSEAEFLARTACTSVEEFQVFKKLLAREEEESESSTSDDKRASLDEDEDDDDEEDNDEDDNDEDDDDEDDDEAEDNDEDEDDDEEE
Experiment: cryo-EM structure

Substance: methyltransferase NSUN4 (from UniProt Q96CB9 26-384)
- binding: binds
